One test can be described thus: PubChem AID 1586. Particulars: yeast two-hybrid polyglutamine protein interaction, reporter readout; measured here: averaged growth delta OD.
Test [1] in a line: enhancers of SMN2 over SMN1 splicing, cell-based, SMN2/SMN1 luciferase reporters (AID 1598). Particulars: SMN2 vs SMN1 luciferase splicing reporter cells, at 10 µM; SMN1 luciferase ratio: measured here: SMN1 luciferase reporter average; SMN2 luciferase ratio: measured here: SMN2 luciferase reporter average, stronger effect = higher value. In general terms: A reporter such as luciferase makes a cellular process visible.

A short description of test [2]: protection against mutant huntingtin cytotoxicity, PC12 cells, LDH release (AID 1610). Particulars: PC12 mutant huntingtin toxicity, final LDH at 4 uM, stronger effect = lower value.

The list shows a part of the results. Further columns of the screen follow, without active or inactive calls. For some assays here: Most of these compounds were active or inconclusive in the main read-out, so they are no random draw.

Regarding `Cc1cc(NS(=O)(=O)c2ccc(N)cc2)no1`, the signal change (36 h minus 0 h) in the test “PubChem AID 1586” was 0.239. In test [1], the SMN1 luciferase ratio was determined as 0.94 and the SMN2 luciferase ratio was found to be 0.97. In test [2], this compound gave a normalised LDH release of 0.967.

Take `Cn1cnc([N+](=O)[O-])c1Sc1ncnc2nc[nH]c12`: the signal change (36 h minus 0 h) in “PubChem AID 1586” is 0.123. Further, in test [1], the SMN1 luciferase ratio was found to be 1 and the SMN2 luciferase ratio was 1.08. For the same compound, the normalised LDH release in test [2] was determined as 1.07.

Consider `CCOc1ccccc1OCC1CNCCO1` (configuration not stated), for which the signal change (36 h minus 0 h) in the test “PubChem AID 1586” was found to be 0.3. In test [1], the SMN1 luciferase ratio worked out at 0.88 and the SMN2 luciferase ratio worked out at 0.92. This compound had a normalised LDH release in test [2] of 0.961.

Consider `COCCc1ccc(OCC(O)CNC(C)C)cc1` (configuration not stated), for which the signal change (36 h minus 0 h) in “PubChem AID 1586” was determined as 0.126. For the same compound, in test [1], the SMN1 luciferase ratio is 0.91 and the SMN2 luciferase ratio was 0.88. For the same compound, the normalised LDH release in test [2] worked out at 1.16.

Take `OCCN1CCN(CCCN2c3ccccc3Sc3ccc(C(F)(F)F)cc32)CC1`: the signal change (36 h minus 0 h) in the test “PubChem AID 1586” was 0.163. For the same compound, in test [1], the SMN1 luciferase ratio stood at 0.92 and the SMN2 luciferase ratio turned out to be 0.91. For the same compound, in test [2], the normalised LDH release turned out to be 0.83.

For the compound `CSc1ccc2c(c1)C(N1CCN(C)CC1)Cc1ccccc1S2` (configuration not stated), the signal change (36 h minus 0 h) in the test “PubChem AID 1586” came out at 0.259. In addition, in test [1], the SMN1 luciferase ratio amounted to 0.91 and the SMN2 luciferase ratio turned out to be 0.93. In test [2], this compound showed a normalised LDH release of 1.52.

In the test “PubChem AID 1586”, `CCN1CCCC(OC(=O)C(c2ccccc2)c2ccccc2)C1` (configuration not stated) displayed a signal change (36 h minus 0 h) of 0.121. In test [1], the SMN1 luciferase ratio came to 0.81 and the SMN2 luciferase ratio was 0.88. The normalised LDH release in test [2] worked out at 0.912.

`CC1(C)S[C@@H]2[C@H](NC(=O)[C@H](N)c3ccccc3)C(=O)N2[C@H]1C(=O)O`: the signal change (36 h minus 0 h) in the test “PubChem AID 1586” worked out at 0.111. In test [1], the SMN1 luciferase ratio came to 0.84 and the SMN2 luciferase ratio turned out to be 0.89. For the same compound, the normalised LDH release in test [2] is 1.12.

(Values after PubChem BioAssay.)
